Measurements published in PMC10164564.
These are yes or no findings as the source states them, for the method shown. For part of these data: A result given as binding can be weak or reduced; the word gives no strength. Where a sequence is shown, tags or fusion partners need not be part of it. For part of these data: In cells and extracts the contact can be indirect.

How the values were obtained:
[1] = molecular target: T1, Flag-tagged full-length USP36 (wild type) (human) (UniProt Q9P275); test: co-IP; anti-Flag immunoprecipitation from lysates of transfected 293, HeLa or H1299 cells (NP-40 lysis buffer), immunoblot
T1 sequence: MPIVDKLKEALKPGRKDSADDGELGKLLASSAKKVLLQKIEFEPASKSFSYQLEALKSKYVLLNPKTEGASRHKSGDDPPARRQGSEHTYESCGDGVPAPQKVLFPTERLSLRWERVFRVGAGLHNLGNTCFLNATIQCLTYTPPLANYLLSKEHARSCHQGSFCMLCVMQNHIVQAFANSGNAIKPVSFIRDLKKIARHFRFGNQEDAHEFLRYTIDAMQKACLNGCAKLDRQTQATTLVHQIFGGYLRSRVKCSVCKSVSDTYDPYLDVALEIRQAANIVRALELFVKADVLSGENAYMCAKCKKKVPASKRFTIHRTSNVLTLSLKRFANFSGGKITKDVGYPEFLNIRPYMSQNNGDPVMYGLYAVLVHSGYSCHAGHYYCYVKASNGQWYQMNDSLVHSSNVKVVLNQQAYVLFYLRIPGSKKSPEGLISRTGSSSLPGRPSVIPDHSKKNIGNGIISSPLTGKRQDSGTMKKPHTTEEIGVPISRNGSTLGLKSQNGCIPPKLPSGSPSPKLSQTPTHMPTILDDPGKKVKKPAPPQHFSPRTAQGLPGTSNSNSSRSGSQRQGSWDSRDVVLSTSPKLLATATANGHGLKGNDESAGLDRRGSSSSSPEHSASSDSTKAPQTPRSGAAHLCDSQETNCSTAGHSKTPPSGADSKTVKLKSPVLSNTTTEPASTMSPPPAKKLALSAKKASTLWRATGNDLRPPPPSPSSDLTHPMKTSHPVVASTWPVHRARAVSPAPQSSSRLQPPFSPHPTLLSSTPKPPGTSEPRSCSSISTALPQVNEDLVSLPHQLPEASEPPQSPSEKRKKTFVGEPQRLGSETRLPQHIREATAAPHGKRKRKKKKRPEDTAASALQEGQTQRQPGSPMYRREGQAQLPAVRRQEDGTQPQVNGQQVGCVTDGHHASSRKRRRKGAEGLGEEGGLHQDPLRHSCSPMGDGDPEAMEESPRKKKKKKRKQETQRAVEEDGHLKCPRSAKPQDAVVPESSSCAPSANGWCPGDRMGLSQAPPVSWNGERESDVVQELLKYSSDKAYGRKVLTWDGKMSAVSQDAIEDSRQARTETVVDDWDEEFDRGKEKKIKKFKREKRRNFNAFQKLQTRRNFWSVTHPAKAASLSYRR

[2] = molecular target: T1, Flag-tagged full-length USP36 (wild type) (human); test: condition: only with 100 μg/ml RNase A and 100 U/ml RNase T1; co-IP; anti-Flag immunoprecipitation in the presence of 100 μg/ml RNase A and 100 U/ml RNase T1; 293 and HeLa cells transfected with Flag-USP36; cells of Supplementary Figures S2C, D not told
[3] = molecular target: T2, GST-fused C-terminus of USP36 (GST-USP36^801-1121) (human) (UniProt Q9P275); test: pull-down; GST fusion or GST alone (200 ng) on glutathione-Sepharose 4B beads, purified His-tagged protein (200 ng) in solution; 50 mM Tris-HCl 7.5, 5 mM MgCl2, 100 mM NaCl, 10% glycerol, 0.5 mg/ml BSA, 5 mM β-mercaptoethanol; 45 min, room temperature; immunoblot; both purified
T2 sequence: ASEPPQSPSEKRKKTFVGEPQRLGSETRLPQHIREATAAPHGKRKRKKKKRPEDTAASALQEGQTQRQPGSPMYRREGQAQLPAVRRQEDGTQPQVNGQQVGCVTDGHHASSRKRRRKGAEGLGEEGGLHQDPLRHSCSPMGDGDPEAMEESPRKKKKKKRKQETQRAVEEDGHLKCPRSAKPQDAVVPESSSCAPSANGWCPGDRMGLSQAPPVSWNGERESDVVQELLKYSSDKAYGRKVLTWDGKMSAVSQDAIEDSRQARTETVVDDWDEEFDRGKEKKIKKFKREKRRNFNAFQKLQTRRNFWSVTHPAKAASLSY

Row | binding [1] | binding [2] | binding [3] | Substance
1 | binds | no binding |  | RPS27a (human (endogenous in 293))
2 |  |  | binds | recombinant His-tagged Lasso domain of EXOSC10 (human) (domain or fragment)
